These are yes or no findings as the source states them, for the method shown. Binding can be weak; no strength is given.

Experimental findings from US20260125477A1 are described below.

In the test the target is monkey B7-H3/CD276 protein, with His tag (monkey). Put plainly: SPR (Biacore T200).

B1: 6B5 (antibody, human IgG1, kappa, V domains shown)
VH: QVQLVESGPGLVKPSQTLSLTCTVSDGSISSGGYYWSWIRQHPGKGLEWIGYIYYSGGTYYSPSLKSRVTISVDTSKNQFSLKLTSVTAADTAVYYCARRAGYSSSFDSWGQGILVTVSS
VL: EIVLTQSPLSLPVTPGEPASISCRSSQSLLYSNGYTYLDWYLQKPGQSPQFLIYLGFNRASGVPDRFSGSGSGTDFTLKISRVEAEDVGVYYCMQGLQTPYTFGQGTKLEIKR
As to B1, the binding entry is “binds”.

B2: 10F5 (antibody, human IgG1, kappa, V domains shown)
VH: QVQLVQSGAEVKKPGSSVKVSCKASGGTFSSQAISWVRQAPGQGLEWMGRIIPMLGIGDYAQSFQGRVTITADKSTSTAYLEVSSLGSEDTAVYYCAREGIAALGTNYYYGMDVWGQGTAVTVSS
VL: EIVMTQSPSSVSASVGDRVTITCRASQGISRWLAWYQQKPGKAPKLLIYVASSLQSGVPSRFSGSGSGTDFTLTISSLQPEDFATYYCQQANSFPFTFGPGTKVDIRR
On to B2, for which the binding result is “binds”.

B3: 10D7 (antibody, human IgG1, kappa, V domains shown)
VH: QVQLVQSGPGLVKPSETLSLTCTVSGGSISRSSYYWGWIRQPPGKGLEWIGNIFYAGSTYYNPSLKSRVTISVDTSKNQFSLKLSSVTAADTAVYYCARRITGTTGWFDPWGQGTLVTVSS
VL: DIQLTQSPSSLSASVGDRVTITCRASQGIRNDLGWYQQKPGKAPKLLIYAASTLQSGVPSRFSGSGSGTDFTLTISSLQPEDFATYYCLQDYNYPRTFGQGTKVEIKR
In the case of B3, the binding result is listed as “binds”.
